Measurements taken from paper PMC11208045.
These are yes or no findings as the source states them, for the method shown. Binding seen in cells or lysates may run through a third protein. Some entries that bind do so weakly or less than the wild type.

The chains behind the UniProt entries cited, without tags or fusion partners.
UniProt P34152: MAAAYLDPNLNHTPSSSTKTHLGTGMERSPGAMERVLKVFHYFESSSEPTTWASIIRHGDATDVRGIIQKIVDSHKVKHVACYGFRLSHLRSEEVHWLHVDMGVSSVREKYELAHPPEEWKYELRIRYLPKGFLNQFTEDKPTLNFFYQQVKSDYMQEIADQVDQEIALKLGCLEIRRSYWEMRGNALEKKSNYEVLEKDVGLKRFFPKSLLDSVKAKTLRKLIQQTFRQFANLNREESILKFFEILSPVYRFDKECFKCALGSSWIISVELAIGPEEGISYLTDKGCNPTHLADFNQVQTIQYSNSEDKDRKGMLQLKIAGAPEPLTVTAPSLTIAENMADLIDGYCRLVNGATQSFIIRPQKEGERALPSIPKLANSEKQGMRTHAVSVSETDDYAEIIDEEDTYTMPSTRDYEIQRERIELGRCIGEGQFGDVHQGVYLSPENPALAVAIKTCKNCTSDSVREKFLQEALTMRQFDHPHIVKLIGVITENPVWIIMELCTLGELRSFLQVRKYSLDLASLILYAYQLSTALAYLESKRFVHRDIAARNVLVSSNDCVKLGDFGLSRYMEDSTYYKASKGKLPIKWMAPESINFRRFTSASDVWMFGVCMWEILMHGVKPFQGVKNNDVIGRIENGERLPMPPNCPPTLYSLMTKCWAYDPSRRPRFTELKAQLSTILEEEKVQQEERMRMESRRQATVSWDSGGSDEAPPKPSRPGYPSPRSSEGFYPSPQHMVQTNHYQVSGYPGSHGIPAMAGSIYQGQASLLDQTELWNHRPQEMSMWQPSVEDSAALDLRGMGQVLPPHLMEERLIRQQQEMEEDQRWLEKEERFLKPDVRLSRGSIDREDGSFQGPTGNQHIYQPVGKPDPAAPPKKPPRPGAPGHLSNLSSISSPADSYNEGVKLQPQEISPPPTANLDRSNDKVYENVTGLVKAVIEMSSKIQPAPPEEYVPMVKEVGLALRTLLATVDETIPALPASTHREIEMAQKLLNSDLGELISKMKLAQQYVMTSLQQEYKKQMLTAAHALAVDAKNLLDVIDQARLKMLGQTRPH
UniProt Q05397: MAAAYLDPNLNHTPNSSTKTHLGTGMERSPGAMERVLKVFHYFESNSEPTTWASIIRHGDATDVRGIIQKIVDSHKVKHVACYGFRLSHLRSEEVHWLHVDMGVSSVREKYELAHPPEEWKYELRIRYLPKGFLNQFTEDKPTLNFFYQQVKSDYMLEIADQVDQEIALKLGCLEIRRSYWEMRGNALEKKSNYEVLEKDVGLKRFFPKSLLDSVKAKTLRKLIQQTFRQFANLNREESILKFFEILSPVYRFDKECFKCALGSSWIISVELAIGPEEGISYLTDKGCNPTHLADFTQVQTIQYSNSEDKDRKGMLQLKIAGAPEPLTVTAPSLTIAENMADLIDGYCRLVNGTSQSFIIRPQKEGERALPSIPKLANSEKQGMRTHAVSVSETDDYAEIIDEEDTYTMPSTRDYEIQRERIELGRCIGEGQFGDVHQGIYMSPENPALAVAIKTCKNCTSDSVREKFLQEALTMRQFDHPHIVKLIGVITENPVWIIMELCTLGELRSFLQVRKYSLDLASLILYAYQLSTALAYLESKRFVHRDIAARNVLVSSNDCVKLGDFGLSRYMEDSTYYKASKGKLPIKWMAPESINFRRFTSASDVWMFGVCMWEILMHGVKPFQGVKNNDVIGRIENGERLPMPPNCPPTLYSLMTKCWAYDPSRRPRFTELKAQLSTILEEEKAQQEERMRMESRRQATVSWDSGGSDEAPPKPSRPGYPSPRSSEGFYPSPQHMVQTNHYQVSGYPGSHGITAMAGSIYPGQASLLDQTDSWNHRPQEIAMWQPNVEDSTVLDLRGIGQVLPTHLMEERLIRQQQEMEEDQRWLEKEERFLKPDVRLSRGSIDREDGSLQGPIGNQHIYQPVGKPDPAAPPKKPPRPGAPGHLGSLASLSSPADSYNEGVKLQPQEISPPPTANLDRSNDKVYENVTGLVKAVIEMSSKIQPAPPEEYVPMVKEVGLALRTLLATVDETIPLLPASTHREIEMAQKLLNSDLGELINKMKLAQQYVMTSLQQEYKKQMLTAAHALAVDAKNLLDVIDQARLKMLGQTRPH

Experiments:
[1] = molecular target: Epidermal growth factor receptor (Egfr), mouse (mouse (endogenous in cecal mucosa)) (UniProt Q01279); assay: co-IP; cecal mucosa lysates of 6-week-old mice (vehicle-treated B and BC, erlotinib-treated BC; KC and BC), pre-cleared with Protein G-sepharose, incubated with anti-EGFR antibody conjugated to agarose at 4 °C for 4 hr; washed with 20 mM Tris-HCl pH 7.5, 150 mM NaCl, 1 mM EDTA, 1% NP40, 10% …; immunoblotting
[2] = molecular target: Epidermal growth factor receptor (EGFR), human (human (endogenous in HT-29)) (UniProt P00533); assay: co-IP; HT-29 cell lysates, cells treated with DMSO, PF-562271 (5 µM) or erlotinib (10 µM) for 1 hr; same immunoprecipitation protocol as for tissue lysates (anti-EGFR agarose); anti-HA or anti-Flag beads as controls; immunoblotting

binding [1]	binding [2]	Substance
binds	–	Focal adhesion kinase (Fak), mouse (from UniProt P34152 1-1052)
–	binds	Focal adhesion kinase (FAK), human (from UniProt Q05397 1-1052)
